Results deposited as PubChem BioAssay AID1259254 (NCATS, 2017)
Aim: 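Gene knock-downs that lead to re-replication, shown by excess G2 DNA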 (primary screen). Cells: human HCT116 colorectal cancer cells. Reagent: single siRNA against human genes. Time to read-out: 3 days. Read-out: 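Imaged Hoechst DNA stain sorts each cell into a cycle phase by DNA amount; per plate, G2 fraction set to 0% for non-targeting and 100% for GMNN siRNA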. Direction: G2 robust z-score and G2 cells, % of GMNN control: higher = more G2 cells, more excess DNA replication; raw share of cells in G2: higher = larger share of cells with G2 DNA content. Rule for the call: 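An siRNA counts as active if its G2 robust z-score lies at least 5 MADs above the screen median; here such calls match roughly 38% of GMNN control or more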.
The whole screen tested about 59,000 reagents; below is a part drawn at random. About 1,550 of all reagents (2.6%) count as active. 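G2 share is only a proxy for re-replication; each gene was hit by three separate siRNAs, and active genes were retested.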 Raw values vary from plate to plate and are shown uncorrected. A number with no mark means an inactive call. Reagents against one gene are numbered here. Not given: the amount of reagent.

| Gene | siRNA no. | G2 robust z-score | G2 cells, % of GMNN control | raw share of cells in G2 (%) |
| --- | --- | --- | --- | --- |
| HDC (histidine decarboxylase) | 1 | 1.53 | 13.7 | 10 |
| HDC (histidine decarboxylase) | 2 | -1.15 | -5.1 | 3.74 |
| HDC (histidine decarboxylase) | 3 | -0.459 | -0.261 | 4.11 |
| PCDHB11 (protocadherin beta 11) | 1 | 0.339 | 5.35 | 6.36 |
| PCDHB11 (protocadherin beta 11) | 2 | -0.00441 | 2.94 | 5.56 |
| PCDHB11 (protocadherin beta 11) | 3 | -0.838 | -2.93 | 5.15 |
| P4HB (prolyl 4-hydroxylase subunit beta) | 1 | -0.256 | 1.17 | 3.6 |
| P4HB (prolyl 4-hydroxylase subunit beta) | 2 | -0.515 | -0.654 | 4.49 |
| P4HB (prolyl 4-hydroxylase subunit beta) | 3 | -0.119 | 2.13 | 6.01 |
| TXLNB (taxilin beta) | 1 | 3.08 | 24.7 | 12.4 |
| TXLNB (taxilin beta) | 2 | 3.86 | 30.1 | 13.1 |
| TXLNB (taxilin beta) | 3 | 1.77 | 15.4 | 7.63 |
| DNAJC4 (DnaJ heat shock protein family (Hsp40) member C4) | 1 | 0.385 | 5.68 | 5.17 |
| DNAJC4 (DnaJ heat shock protein family (Hsp40) member C4) | 2 | -0.583 | -1.13 | 3.01 |
| DNAJC4 (DnaJ heat shock protein family (Hsp40) member C4) | 3 | 0.825 | 8.77 | 8.96 |
| SLFN11 (schlafen family member 11) | 1 | -0.919 | -3.5 | 2.6 |
| SLFN11 (schlafen family member 11) | 2 | 1.87 | 16.1 | 8.05 |
| SLFN11 (schlafen family member 11) | 3 | -0.121 | 2.12 | 3.6 |
| CENPW (centromere protein W) | 1 | -0.313 | 0.768 | 4.96 |
| CENPW (centromere protein W) | 2 | 1.16 | 11.1 | 7.58 |
| CENPW (centromere protein W) | 3 | -0.495 | -0.516 | 3.18 |
| KRT8P3 (keratin 8 pseudogene 3) | 1 | -0.909 | -3.43 | 2.21 |
| KRT8P3 (keratin 8 pseudogene 3) | 2 | -0.948 | -3.71 | 1.66 |
| KRT8P3 (keratin 8 pseudogene 3) | 3 | -0.3 | 0.859 | 4.26 |
| BNIP5 (BCL2 interacting protein 5) | 1 | -0.785 | -2.55 | 2.9 |
| BNIP5 (BCL2 interacting protein 5) | 2 | 1.32 | 12.3 | 8.74 |
| BNIP5 (BCL2 interacting protein 5) | 3 | -1.1 | -4.79 | 2.58 |
| GTSF1L (gametocyte specific factor 1 like) | 1 | -0.531 | -0.766 | 3.57 |
| GTSF1L (gametocyte specific factor 1 like) | 2 | -0.694 | -1.92 | 2.32 |
| GTSF1L (gametocyte specific factor 1 like) | 3 | -0.369 | 0.374 | 3.2 |
| SMC2 (structural maintenance of chromosomes 2) | 1 | 6.56 (active) | 49.1 | 27 |
| SMC2 (structural maintenance of chromosomes 2) | 2 | 4.27 | 33 | 14.5 |
| SMC2 (structural maintenance of chromosomes 2) | 3 | 6.89 (active) | 51.4 | 26.8 |
| PRELID3A (PRELI domain containing 3A) | 1 | 0.985 | 9.9 | 8.86 |
| PRELID3A (PRELI domain containing 3A) | 2 | 2.65 | 21.6 | 13.1 |
| PRELID3A (PRELI domain containing 3A) | 3 | -0.0415 | 2.68 | 4.17 |
| OR6K2 (olfactory receptor family 6 subfamily K member 2) | 1 | -0.863 | -3.1 | 3.16 |
| OR6K2 (olfactory receptor family 6 subfamily K member 2) | 2 | 6.61 (active) | 49.5 | 25.9 |
| OR6K2 (olfactory receptor family 6 subfamily K member 2) | 3 | 1.79 | 15.6 | 6.64 |
| DCBLD2 (discoidin, CUB and LCCL domain containing 2) | 1 | -0.411 | 0.0779 | 4.2 |
| DCBLD2 (discoidin, CUB and LCCL domain containing 2) | 2 | 0.768 | 8.37 | 5.76 |
| DCBLD2 (discoidin, CUB and LCCL domain containing 2) | 3 | 0.296 | 5.05 | 4.41 |
| KCNG3 | 1 | -1.29 | -6.11 | 3.06 |
| KCNG3 | 2 | 2.03 | 17.3 | 10.6 |
| KCNG3 | 3 | 0.331 | 5.3 | 6.44 |
| NDUFA2 (NADH:ubiquinone oxidoreductase subunit A2) | 1 | 0.725 | 8.07 | 5.86 |
| NDUFA2 (NADH:ubiquinone oxidoreductase subunit A2) | 2 | -0.533 | -0.785 | 5.16 |
| NDUFA2 (NADH:ubiquinone oxidoreductase subunit A2) | 3 | -0.546 | -0.875 | 5.02 |

As entered above.
Result for HDC (histidine decarboxylase) #1 under “raw share of cells in G2 (%)”: 10
Value for HDC (histidine decarboxylase) #3 in “G2 cells, % of GMNN control”: -0.261
